Values quoted from earlier work as cited in patent US20240276935A1, “METHODS FOR ENHANCING DISEASE RESISTANCE AND INCREASING BIOMASS YIELD AND SECONDARY METABOLITE QUANTITIES IN CANNABIS SATIVA UTILIZING PLANT DEFENSE-RESPONSE ELICITORS” (priority 2023, published 2024).
Some results were stated once for a whole list of compounds, not compound by compound.

Tested on: medical cannabis variety
Settings: 0.1 mM, foliar application; cited from earlier work

SMILES | increase of CBDA and THCA accumulation in leaves
CC/C=C\CC1C(=O)CCC1CC(=O)OC (centres unmarked) [MeJA, methyl jasmonate] | up to 57.3%
O=C(O)c1ccccc1O [SA, salicylic acid] | up to 57.3%
